In publication PMC6901240:
Results are given in words; binding and its absence hold for the method and conditions named. In cells and extracts the contact can be indirect. A result given as binding can be weak or reduced; the word gives no strength.

Chains of the proteins cited; added tags and fusions are not shown.
UniProt Q7S2I4: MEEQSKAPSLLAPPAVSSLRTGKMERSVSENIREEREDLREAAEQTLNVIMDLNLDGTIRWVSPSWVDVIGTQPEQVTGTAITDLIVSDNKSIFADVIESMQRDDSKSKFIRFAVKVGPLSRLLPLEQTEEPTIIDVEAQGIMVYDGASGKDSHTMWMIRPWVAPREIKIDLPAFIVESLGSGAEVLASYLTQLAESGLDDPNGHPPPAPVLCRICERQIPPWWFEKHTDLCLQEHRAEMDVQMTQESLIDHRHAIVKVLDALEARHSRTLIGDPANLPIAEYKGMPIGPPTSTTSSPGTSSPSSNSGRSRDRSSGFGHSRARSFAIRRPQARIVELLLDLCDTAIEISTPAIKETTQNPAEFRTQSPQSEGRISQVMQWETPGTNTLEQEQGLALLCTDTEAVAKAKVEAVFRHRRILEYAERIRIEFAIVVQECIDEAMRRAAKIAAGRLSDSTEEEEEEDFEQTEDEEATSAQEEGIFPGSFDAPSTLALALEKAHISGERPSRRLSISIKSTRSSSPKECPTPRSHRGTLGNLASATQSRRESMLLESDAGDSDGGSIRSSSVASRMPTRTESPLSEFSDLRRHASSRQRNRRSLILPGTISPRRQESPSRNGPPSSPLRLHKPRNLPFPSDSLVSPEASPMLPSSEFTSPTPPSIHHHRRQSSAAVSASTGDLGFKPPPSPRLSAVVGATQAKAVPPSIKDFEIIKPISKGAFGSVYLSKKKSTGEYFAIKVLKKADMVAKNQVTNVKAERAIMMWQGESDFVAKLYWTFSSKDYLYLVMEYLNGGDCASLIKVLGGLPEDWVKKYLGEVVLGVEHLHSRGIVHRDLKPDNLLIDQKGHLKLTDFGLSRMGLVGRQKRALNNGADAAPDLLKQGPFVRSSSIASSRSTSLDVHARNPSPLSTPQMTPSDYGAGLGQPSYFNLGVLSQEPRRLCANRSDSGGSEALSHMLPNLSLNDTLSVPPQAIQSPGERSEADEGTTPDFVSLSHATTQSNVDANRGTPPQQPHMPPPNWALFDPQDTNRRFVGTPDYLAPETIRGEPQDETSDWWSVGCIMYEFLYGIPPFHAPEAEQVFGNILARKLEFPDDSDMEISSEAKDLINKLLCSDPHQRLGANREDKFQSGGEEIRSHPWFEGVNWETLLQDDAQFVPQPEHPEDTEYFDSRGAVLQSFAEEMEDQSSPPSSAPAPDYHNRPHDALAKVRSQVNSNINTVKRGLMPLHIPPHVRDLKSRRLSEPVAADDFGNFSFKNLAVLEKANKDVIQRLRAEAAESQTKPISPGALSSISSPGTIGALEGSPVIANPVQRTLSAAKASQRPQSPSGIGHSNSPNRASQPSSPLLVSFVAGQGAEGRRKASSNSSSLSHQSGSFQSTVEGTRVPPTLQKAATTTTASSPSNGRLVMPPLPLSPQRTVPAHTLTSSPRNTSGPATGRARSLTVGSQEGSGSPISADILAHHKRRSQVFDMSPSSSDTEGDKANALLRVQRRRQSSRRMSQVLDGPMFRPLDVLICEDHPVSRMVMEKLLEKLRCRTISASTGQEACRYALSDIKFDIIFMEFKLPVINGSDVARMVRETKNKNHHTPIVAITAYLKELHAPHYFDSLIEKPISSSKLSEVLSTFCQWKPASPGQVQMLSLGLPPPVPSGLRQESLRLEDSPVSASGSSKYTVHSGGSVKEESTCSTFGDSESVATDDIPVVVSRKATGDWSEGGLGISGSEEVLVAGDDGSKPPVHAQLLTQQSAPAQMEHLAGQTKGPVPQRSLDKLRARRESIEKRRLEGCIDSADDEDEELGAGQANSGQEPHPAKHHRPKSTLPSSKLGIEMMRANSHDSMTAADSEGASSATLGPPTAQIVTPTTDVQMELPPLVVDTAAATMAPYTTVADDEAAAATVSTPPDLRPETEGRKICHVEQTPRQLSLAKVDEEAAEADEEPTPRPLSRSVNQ

Molecular target: STK-12 (N. crassa (endogenous in N. crassa mycelia)) (UniProt Q7S2I4)
Assay: co-IP; total protein of strain Pc-NcIGO-1 grown 2 days in 2% Avicel VMM; anti-STK-12 antiserum 4 h at 4°C, protein A or G magnetic beads; blots with anti-STK-12 and anti-GFP; preimmune serum as control

binding: binds
Substance: IGO-1-GFP (from UniProt Q7RW74)
